The other results are listed elsewhere or left out.

Amino acid sequences for entries named in this document (tags omitted).
UniProt Q0JBA9, entry or part of it: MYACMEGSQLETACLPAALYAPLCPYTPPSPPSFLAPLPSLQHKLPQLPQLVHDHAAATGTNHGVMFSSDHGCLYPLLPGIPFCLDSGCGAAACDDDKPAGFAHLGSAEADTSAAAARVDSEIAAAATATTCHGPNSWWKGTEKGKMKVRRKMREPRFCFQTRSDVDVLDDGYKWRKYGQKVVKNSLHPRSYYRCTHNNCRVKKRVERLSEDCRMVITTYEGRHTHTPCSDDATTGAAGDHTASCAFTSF

For the test, the target named is OsWRKY34 (Oryza sativa, UniProt Q0JBA9 1-250). Nature of the test: protein-binding microarray (RPBM); PBS, 2% BSA, 51.3 ng/ul salmon testes DNA, 50 uM zinc acetate, 200 nM TF, 25 C, 1 h; high values mean tight binding. The following applies: protein: recombinant; tags: N-terminal polyhistidine and DsRed monomer fusion (pET32a); label: CyDye5-dUTP incorporated in the synthesized complementary strand; 3' TTTTT single-stranded linker to array surface; dsDNA, one strand shown. In outline: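 Binding signal here means per-feature fluorescence intensity in arbitrary units. The values were read on an Axon 4000B scanner after a custom Agilent array, double-stranded by primer extension with Cy5-dUTP, was incubated with 200 nM protein at 25 °C for 1 h in PBS with 2% BSA, salmon testes DNA and 50 µM zinc acetate, then washed. The proteins were transcription factors with an N-terminal polyhistidine tag and DsRed, expressed in E. coli BL21-CodonPlus and purified on Ni–NTA.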
For “ATGAGCTCCATGATATATCCATTCTCGCCTGTGCAAATCCCGGAGTCACCTAGTGCAG”, the binding signal was 10100 fluorescence intensity (a.u.). “TTTCTTTAACCCATGGCCTCTCTCGTCGCCACCACCCGAACGGAGTCACCTAGTGCAG”: the binding signal is 9530 fluorescence intensity (a.u.). As for “ATCCTCCTCGACGTCCTCACACGCCTCACCTCACCTCACCCGGAGTCACCTAGTGCAG”, the binding signal was 8900 fluorescence intensity (a.u.). As to “CCTTGTCGATTTTCTTTGACCTAAACCCATCGTCTTCTCCCGGAGTCACCTAGTGCAG”, the binding signal was 9260 fluorescence intensity (a.u.). On to “CTTATCCCTTTCGCACGACCGCATCTCCCGCACACGCGCACGGAGTCACCTAGTGCAG”, for which the binding signal is 10400 fluorescence intensity (a.u.).

For the sequence “AATACTCATTGGTTGCATGCTTATATTCACTCCTTAATTTCGGAGTCACCTAGTGCAG”, the binding signal is 11100 fluorescence intensity (a.u.). With “ATCTTCCCATTGCCACCCGATGTCTTCTCAGTCTTGATTTCGGAGTCACCTAGTGCAG”, the binding signal was 9660 fluorescence intensity (a.u.). Regarding “TTCTTTCTGCCCATCATGGGCTCTACTGTAATTCTTCTAACGGAGTCACCTAGTGCAG”, the binding signal is 8550 fluorescence intensity (a.u.). For “CGAATACATTAGTTATGGTGACATTTTTGTGCTTCTTTTACGGAGTCACCTAGTGCAG”, the binding signal was 8110 fluorescence intensity (a.u.).

As to “ATGCCAACACCATCATGCTAATATCAATGTTTTGTTTAATCGGAGTCACCTAGTGCAG”, the binding signal is 8080 fluorescence intensity (a.u.). The same measure for “TGGCGTCTCTATCATAGAATCGTGGATATATATATGCTACCGGAGTCACCTAGTGCAG”: 8060 fluorescence intensity (a.u.); for “AGTGTTGGCTGAAGTTGTGGTCTTGTGGACCATGTCGATTCGGAGTCACCTAGTGCAG”: 8540 fluorescence intensity (a.u.). With “TGTTTCAGTTATTTTGTTTGTTCAACTATAATGTTTCACTCGGAGTCACCTAGTGCAG”, the binding signal is 10100 fluorescence intensity (a.u.). “AAATCAGGTCCCATAATAATATGGGTGTTTGTTTTTCGCTCGGAGTCACCTAGTGCAG”: the binding signal is 8390 fluorescence intensity (a.u.).

“AGGGAGTTTTTAGAAGGGATTGGGAGTTTAGAGGGATGATCGGAGTCACCTAGTGCAG”: the binding signal was 8640 fluorescence intensity (a.u.). Turning to “GACTTCACTCACACGCGCACTCATATCCACGTACGATCTCCGGAGTCACCTAGTGCAG”, the binding signal is 8740 fluorescence intensity (a.u.).

Take “GTGTCTCTGGTTAATACTAATTGGAGAGGCCTCTCCAATTCGGAGTCACCTAGTGCAG”: the binding signal is 8160 fluorescence intensity (a.u.). The same measure for “TTGCTCTTGCTCGTAGTCGTAGGGTGTTTGGCCGTTTGACCGGAGTCACCTAGTGCAG”: 9510 fluorescence intensity (a.u.); for “TGGCTATCCTTATGTGCTTATTTTTTTATTGTTCCTTCAGCGGAGTCACCTAGTGCAG”: 8980 fluorescence intensity (a.u.).

Take “ATCTCCCAAAGCCTAGTGCAAATCACGTTCATTGTTTCTTCGGAGTCACCTAGTGCAG”: the binding signal was 9350 fluorescence intensity (a.u.). In the case of “ATAACATCCCCACTTGCCCCAACCATGTCGGCGCCGCCGCCGGAGTCACCTAGTGCAG”, the binding signal was 8280 fluorescence intensity (a.u.). Consider “TCGCCGAAGCCCGTCACCATCGCGTCACCATCGCGTCCGACGGAGTCACCTAGTGCAG”, for which the binding signal is 9580 fluorescence intensity (a.u.). As for “CACGCTTCGGAGAATTTCCGACAATACACATACTCCTACTCGGAGTCACCTAGTGCAG”, the binding signal was 8990 fluorescence intensity (a.u.). Regarding “CTGTTCATATTCAACGTTTGACCATTCGTATTAATTGAAACGGAGTCACCTAGTGCAG”, the binding signal is 8520 fluorescence intensity (a.u.). In the case of “GGAGCTAGGGTCCGCTTTGCAGCAGGAGGGGTGGGGCACACGGAGTCACCTAGTGCAG”, the binding signal was 13800 fluorescence intensity (a.u.). Next, “ATCAGCCAAACCCCATCCCTAACTCCATGGCTTATCTATGCGGAGTCACCTAGTGCAG”: 8200 fluorescence intensity (a.u.); “ATTCTGTTGTTAACTCTGCCTTCAGCTGCATTTTCTTATTCGGAGTCACCTAGTGCAG”: 14500 fluorescence intensity (a.u.). Regarding “TATTATTATGAATATATACAAATCCTTATCGATCAATATTCGGAGTCACCTAGTGCAG”, the binding signal is 8330 fluorescence intensity (a.u.). Turning to “CCGTTACTGGCTCTTTCATTGTCTTCTTTCATTGACTCCTCGGAGTCACCTAGTGCAG”, the binding signal is 11300 fluorescence intensity (a.u.). For the sequence “CACCTCCGACATTTGCTCTCAAACTTAAACATTTCGCTTCCGGAGTCACCTAGTGCAG”, the binding signal is 9060 fluorescence intensity (a.u.). On to “ATTTTTCCCTTGATCTACACATCTTGATCTTTTTTTTTTCCGGAGTCACCTAGTGCAG”, for which the binding signal was 9920 fluorescence intensity (a.u.). As for “CTTAACCATCCATTCTTCGCATCTCTTATCTTTTCAAACCCGGAGTCACCTAGTGCAG”, the binding signal is 12700 fluorescence intensity (a.u.). Consider “GGATTCTAATTTTCCTTCTAATTGCTATGTTATCTTCCAACGGAGTCACCTAGTGCAG”, for which the binding signal is 9880 fluorescence intensity (a.u.). Next, “GTACAAACGCCTCATTATTGATGCTGCAACTTCTCCTGTTCGGAGTCACCTAGTGCAG”: 9060 fluorescence intensity (a.u.); “GAGCACACATCTCTCATAGGCCGCACATGTCAAATTCTAACGGAGTCACCTAGTGCAG”: 8240 fluorescence intensity (a.u.).

In the case of “GATGGATGGGGTGGGGACTGGGGATGGATGGAGGCGGCGGCGGAGTCACCTAGTGCAG”, the binding signal was 21300 fluorescence intensity (a.u.). Consider “TTTCTTCTTCTCTTTCCATGTCCTCTTTCTCTGCTTTTTACGGAGTCACCTAGTGCAG”, for which the binding signal was 11900 fluorescence intensity (a.u.).

With “ATTCGTTGGACTGCTGTCCTGTTTTGTTCCTTTTTTTTCCCGGAGTCACCTAGTGCAG”, the binding signal is 8290 fluorescence intensity (a.u.). Regarding “ATGAATGGTCAAACATGTTTAAAAAAGTCAACGGCGTCAACGGAGTCACCTAGTGCAG”, the binding signal is 15300 fluorescence intensity (a.u.). For “CCACTTGATGCCATTATATCTTTTTGGGAGTGTTTAGATTCGGAGTCACCTAGTGCAG”, the binding signal is 8270 fluorescence intensity (a.u.). With “CCGCTGATGCCCACAGGTTGTCGCTGTCATGCTTTTTTTCCGGAGTCACCTAGTGCAG”, the binding signal is 12100 fluorescence intensity (a.u.). As for “GCTGTTCTTGCTGATTTCAGTCTTCTTCTTCCGGTGGTCGCGGAGTCACCTAGTGCAG”, the binding signal was 9400 fluorescence intensity (a.u.). Turning to “TGAAACATCGCTCATATTTTTACTGGTATCCTCGATTTTACGGAGTCACCTAGTGCAG”, the binding signal was 9040 fluorescence intensity (a.u.).

In the case of “TGTATATTCTGATCAAACATTGGCGTCTACTACTCTACTACGGAGTCACCTAGTGCAG”, the binding signal was 8030 fluorescence intensity (a.u.). Next, “CAACTGGGGAGCAAGATAGGGGAGGAAAGACAGACTTATTCGGAGTCACCTAGTGCAG”: 8980 fluorescence intensity (a.u.); “CCGTCAGTTCTCTCTTCTCTCTTCTTCTTCTGACGTCGCCCGGAGTCACCTAGTGCAG”: 8170 fluorescence intensity (a.u.).

For the sequence “GCGCTGTCAGTGTGTGGGTGGTAGTATATTTTTTTCTTTTCGGAGTCACCTAGTGCAG”, the binding signal was 12500 fluorescence intensity (a.u.). Regarding “GCACTCGTTCGGCTTCTACTATATAAGATAGACATCGTACCGGAGTCACCTAGTGCAG”, the binding signal is 8650 fluorescence intensity (a.u.).

For the sequence “GAGCCAGCTGCTCCCTAATCATCATCACTTACATTATTCTCGGAGTCACCTAGTGCAG”, the binding signal was 9740 fluorescence intensity (a.u.).

For “TTCTTTCCTTTGTATTCTCGTGCGCGCATAGCAACTGCAACGGAGTCACCTAGTGCAG”, the binding signal was 8100 fluorescence intensity (a.u.). “TCCAATGCATGCCGACTCTTTGAGTCCCCATTCGATTCGACGGAGTCACCTAGTGCAG”: the binding signal is 9470 fluorescence intensity (a.u.). As to “GTGTTTTTTCCTTCCTAATTTAAAAGCATTTTTCACATTACGGAGTCACCTAGTGCAG”, the binding signal is 8150 fluorescence intensity (a.u.). For the sequence “TGTGGAAGAATGGGTGTGTTGATTGATGTGATTTAAATTACGGAGTCACCTAGTGCAG”, the binding signal is 8960 fluorescence intensity (a.u.). With “CCACTTCATTCCCTACCACGCCGTCATCCATGGCCGCCGGCGGAGTCACCTAGTGCAG”, the binding signal was 12700 fluorescence intensity (a.u.).

These data come from paper PMC7819943, “Rice protein-binding microarrays: a tool to detect cis-acting elements near promoter regions in rice”.
